{"source": "PubChem BioAssay AID743454 (Peter MacCallum Cancer Centre, 2014)", "test": "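Knock-downs lowering viability or raising caspase 3/7 activity in vorinostat-treated resistant cells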 (primary screen)", "cells": "human HCT116-VR colon cancer cells, selected for vorinostat resistance", "reagent": "siRNA pool against human genes, 40 nM siRNA pool", "duration": "vorinostat for 24 h, read-out about 72 h after transfection", "treatment": "vorinostat at 2.5 µM final", "detection": "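Two measures, CellTiter-Fluor viability and luminescent caspase 3/7 activity, each as fold change against same-plate mock wells, mean of duplicates, then screen-wide robust z-score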", "reading the numbers": "viability robust z-score: higher = more viable cells than screen typical; caspase robust z-score: higher = more caspase 3/7 activity than screen typical", "hit rule": "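a knock-down is a hit when classed RV1 or RV2 for lowered viability, or CA1 or CA2 for caspase activation; those lethal without drug were dropped; hits were retested singly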", "note": "This is a random part of about 18,000 reagents tested. 450 of them (2.5%) count as active. 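Single biological run; no consistent viability z cut-off exists, so the class columns, not z-scores, define the calls.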 Unmarked entries are inactive. The numbers tell different reagents against one gene apart."}
{"target gene": "RNF220", "reagent no.": 1, "viability hit class": "no change", "caspase hit class": "no change", "viability robust z-score": 0.08, "caspase robust z-score": 0.55}
{"target gene": "DEFB131A", "reagent no.": 1, "viability hit class": "no change", "caspase hit class": "no change", "viability robust z-score": -0.85, "caspase robust z-score": 0.24}
{"target gene": "JADE2", "reagent no.": 1, "viability hit class": "no change", "caspase hit class": "no change", "viability robust z-score": -0.04, "caspase robust z-score": 0.7}
{"target gene": "SOX11", "reagent no.": 1, "viability hit class": "no change", "caspase hit class": "no change", "viability robust z-score": 0.38, "caspase robust z-score": -0.74}
{"target gene": "DLGAP2", "reagent no.": 1, "viability hit class": "no change", "caspase hit class": "no change", "viability robust z-score": -0.88, "caspase robust z-score": 0.2}
{"target gene": "RD3", "reagent no.": 1, "viability hit class": "no change", "caspase hit class": "no change", "viability robust z-score": -0.9, "caspase robust z-score": -0.74}

Next part; the last 2 above are carried over.
{"target gene": "DLGAP2", "reagent no.": 1, "viability hit class": "no change", "caspase hit class": "no change", "viability robust z-score": -0.88, "caspase robust z-score": 0.2}
{"target gene": "RD3", "reagent no.": 1, "viability hit class": "no change", "caspase hit class": "no change", "viability robust z-score": -0.9, "caspase robust z-score": -0.74}
{"target gene": "SERPINA10", "reagent no.": 1, "viability hit class": "no change", "caspase hit class": "no change", "viability robust z-score": -0.68, "caspase robust z-score": -0.77}
{"target gene": "CHIC2", "reagent no.": 1, "viability hit class": "no change", "caspase hit class": "no change", "viability robust z-score": 1.64, "caspase robust z-score": -0.62}
{"target gene": "C1QTNF3", "reagent no.": 1, "viability hit class": "no change", "caspase hit class": "no change", "viability robust z-score": -0.98, "caspase robust z-score": -0.98}
{"target gene": "SF3B1", "reagent no.": 1, "viability hit class": "no change", "caspase hit class": "no change", "viability robust z-score": -4.85, "caspase robust z-score": 0.43}
{"target gene": "CFAP47", "reagent no.": 1, "viability hit class": "no change", "caspase hit class": "no change", "viability robust z-score": -1.6, "caspase robust z-score": 2.92}
{"target gene": "CFAP47", "reagent no.": 2, "viability hit class": "no change", "caspase hit class": "no change", "viability robust z-score": 0.29, "caspase robust z-score": -0.44}
